# Results deposited as PubChem BioAssay AID652259 (Drosophila RNAi Screening Center, 2013).
# Assay: 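Knock-downs that push a Wingless-driven reporter up or down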 (primary screen)
# Cells: Drosophila clone 8 imaginal disc epithelial cells
# Reagents: long dsRNA against Drosophila genes
# Challenge: pathway stimulated by co-transfected Wingless expression plasmid
# Measured: 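Dual luciferase reads per well after Wingless plasmid stimulation: reporter firefly light and Renilla control light; activity is firefly divided by Renilla, a ratio not deposited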
# Reading the numbers: firefly reporter light: higher = more Wg reporter light, before normalisation; Renilla control light: higher = more transfected or surviving cells
# Active means: 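Strong candidates differ from their plate mean by at least two out of four per-plate statistical tests; weak candidates meet just one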
# Meaning of the calls: active = candidate regulator (raises or lowers reporter); inactive = not a candidate
# The deposit covers about 22,000 reagents; below is a random part of those that have a named target and a result. In the full data, 233 (1.1%) are marked active. 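Light values are raw, unnormalised plate reads; the ratio scores behind the reporter calls were not deposited.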 A plus sign joins genes that one reagent is predicted to hit. No sequences are given here. Not stated in the record: the amount of reagent, the time to read-out, the dose of the treatment.
Gene,dsRNA,"reporter change call, replicate 1","firefly reporter light, replicate 1","firefly reporter light, replicate 2","Renilla control light, replicate 1","Renilla control light, replicate 2",activity call
CG1792,DRSC15290,,15907,,12456,,inactive
IFT20 + CG10395,DRSC22660,,8.40e5,6.83e5,2.98e5,76,inactive
CG3795,DRSC18593,,4240,7258,1515,2557,inactive
Tsp42Ep,DRSC06871,,12384,,2107,,inactive
CG8329,DRSC10978,,5105,,2637,,inactive
toe,DRSC09174,,3050,,1158,,inactive
toe,DRSC09783,,10295,,2212,,inactive
CG17202,DRSC15194,,15984,,2250,,inactive
Dph1,DRSC09851,,3622,,1796,,inactive
CG43329,DRSC11672,,15127,,5193,,inactive
CG32533,DRSC19443,,1986,7341,705,3312,inactive
CG32533,DRSC19553,,12237,,6932,,inactive
Pif1,DRSC00582,,13334,,5467,,inactive
odd,DRSC00832,Wg reporter activity raised,4179,7610,301,272,active
Neos,DRSC11235,,3636,,1771,,inactive
CG15646,DRSC19682,,15491,,7171,,inactive
CG6928,DRSC10749,,3440,,2020,,inactive
Cpr5C,DRSC18340,,24560,,12053,,inactive
CG12057,DRSC17797,,16891,,9782,,inactive
Pex2,DRSC10770,,4396,,1961,,inactive
CG3123,DRSC00570,,2160,6176,952,2150,inactive
Nt5a,DRSC08561,,17335,,5477,,inactive
Ugt35C1,DRSC16080,,23722,,5708,,inactive
CG13928,DRSC08397,,4749,,1584,,inactive
CG9485,DRSC04557,,9765,,3216,,inactive
Surf6,DRSC15588,,3228,7909,1273,3046,inactive
CG10068,DRSC12508,,8160,,2496,,inactive
beag,DRSC15296,,8704,,2502,,inactive
Bicra,DRSC14417,Wg reporter activity raised,16475,,1756,,active
FASN1,DRSC00268,,12987,,4149,,inactive
CG12010,DRSC08218,,2979,,1927,,inactive
AkhR,DRSC03329,,10138,,4745,,inactive
CG15461,DRSC20532,,19995,,8744,,inactive
CG8774,DRSC16445,,6220,,2547,,inactive
Irp-1B,DRSC16720,,13872,,2472,,inactive
Ankle2,DRSC20105,,3210,12496,1194,3896,inactive
Ankle2,DRSC20106,,9776,,7192,,inactive
Cyp12a4,DRSC16620,,9184,,2192,,inactive

8 entries from above, reduced to “firefly reporter light, replicate 1”.
CG1792 [DRSC15290] = 15907
IFT20 + CG10395 [DRSC22660] = 8.40e5
CG3795 [DRSC18593] = 4240
Tsp42Ep [DRSC06871] = 12384
CG8329 [DRSC10978] = 5105
toe [DRSC09174] = 3050
toe [DRSC09783] = 10295
CG17202 [DRSC15194] = 15984

The listing continues.
Gene,dsRNA,"reporter change call, replicate 1","firefly reporter light, replicate 1","firefly reporter light, replicate 2","Renilla control light, replicate 1","Renilla control light, replicate 2",activity call
CNBP,DRSC04116,,1846,6307,747,3610,inactive
CNBP,DRSC04419,,16172,,5255,,inactive
CNBP,DRSC21317,,4.63e5,6.30e5,2.18e5,1.90e5,inactive
Bdbt,DRSC15218,,12118,,4096,,inactive
CG5946,DRSC10560,,5777,,2116,,inactive
alpha-Est1,DRSC12612,,4640,,891,,inactive
Tmtc2,DRSC00272,,9408,,2960,,inactive
Ent3,DRSC09822,,7531,,3488,,inactive
CG5762,DRSC15869,,2483,4871,1043,1418,inactive
CG34375,DRSC14684,,22233,,17291,,inactive
CG34375,DRSC14685,,26832,,12745,,inactive
Pxt,DRSC17040,,13836,,2240,,inactive
CG8209,DRSC10970,,1609,8313,1428,3180,inactive
CG10738,DRSC09792,,4492,,2139,,inactive
CCDC151,DRSC10131,,7092,,2689,,inactive
CG15209,DRSC19655,,25816,,11360,,inactive
Ac76E,DRSC09642,,1778,,1066,,inactive
Ac76E,DRSC09662,,8354,,3476,,inactive
smo,DRSC00837,,7872,,3845,,inactive
CAH7,DRSC15524,,13557,,3917,,inactive
CG7296,DRSC03042,,6444,,1980,,inactive
CG7296,DRSC22343,,3.27e5,3.60e5,1.42e5,1.61e5,inactive
CG32189,DRSC09511,,3632,,1563,,inactive
CG2875,DRSC18231,,2844,7241,1125,2837,inactive
Or98P,DRSC22948,,6.38e5,6.81e5,2.89e5,1.69e5,inactive
Rpn1,DRSC11274,,4629,,1049,,inactive
lncRNA:CR31781,DRSC02431,,8198,,3488,,inactive
lncRNA:CR31781,DRSC02432,,2804,4615,1298,3559,inactive
CG17027,DRSC10238,,8080,,3232,,inactive
Hmr,DRSC17740,,16165,,7201,,inactive
CG17287,DRSC06659,,5012,,2253,,inactive
CG7191,DRSC03022,,3842,6160,1321,2593,inactive
Naglu,DRSC02267,,9441,,3760,,inactive
CG14830,DRSC08876,,4231,,1874,,inactive
mRpL13,DRSC02076,,3138,7601,563,2560,inactive
